Assay results taken from US10485773B2, “Benzenesulfonamide derivatives and method for treating cancer” (GONGWIN BIOPHARM HOLDINGS CO., LTD., priority 2016, dated 2019).
Some results were stated once for a whole list of compounds, not compound by compound. Some ranges recur; such a range may be that of the whole group of compounds.

Experiments:
[1] = tested on: human non-small-cell lung cancer cell lines H460; assay: SRB growth inhibition of lung cancer cells; format: cell-based; details: relative to p-TSA in DMSO
Procedure: (§1) After letting to stand for 10 minutes at room temperature, the supernatant of each well was removed, and each well was washed with 200 μL H2O once. […] Each of the plates was then placed in the laminar flow cabinet for 1 hour for air dry. 50 μL 0.4% sulforhodamine B (SRB) dye was added into each well of the 96-well plate. […] Each of the plates was then placed in the laminar flow cabinet for 40 minutes to 1 hour for air dry. 1×Tris-Base solution with pH 7.0 to 7.4 was added to each well of the 96-well plate to dissolve the protein complex formed in the bottom of each well, followed by tapping the 96-well plate, allowing the complex in each well to be dissolved uniformly. Absorption of each well under 515 nm was read. […] Each of the experimental group was performed in triplet.

[2] = tested on: human liver cancer cell lines Hep3B; assay: SRB growth inhibition of liver cancer cells; format: cell-based; details: relative to p-TSA in DMSO
Procedure: as §1

Row | SMILES | lower IC50 values than p-TSA (fold), H460 [1] [folds] | lower IC50 values than p-TSA (fold), Hep3B [2] [folds]
1 | Cc1ccc(S(=O)(=O)N2CC(O)C2)cc1 [PTSA037] | 6 to 20 | 6 to 20
2 | Cc1ccc(S(=O)(=O)NC2COC2)cc1 [PTSA040] | 6 to 20 | 6 to 20
3 | Cc1ccc(S(=O)(=O)NC2CCN(Cc3ccccc3)CC2)cc1.Cl [PTSA052i] | 6 to 20 | 6 to 20
4 | Cc1ccc(S(=O)(=O)N2CCC(CN)CC2)cc1.Cl [PTSA055] | 6 to 20 | 6 to 20
5 | Cc1ccc(S(=O)(=O)N2CC(C(=O)NO)C2)cc1 [PTSA067] | 6 to 20 | 6 to 20
